No constants are given. Whether binding was seen depends on the method and setting. In cells and extracts the contact can be indirect. A result given as binding can be weak or reduced; the word gives no strength.
Target: GST-Rhotekin-Rho binding domain (RBD) (UniProt Q9BST9)
Assay: pull-down; GST-Rhotekin-RBD beads; cell lysate (500 µg protein) loaded with 0.1 mM GTPγS (10 mM EDTA, 30 °C, 30 min, stopped with 60 mM MgCl2); RhoA detected by Western blotting; only the target purified

By UniProt entry, the sequences of proteins in these tests, tags left out. Where a name states a change or a piece, a line headed by the entry shows the natural chain unless it says otherwise.
UniProt Q9BST9: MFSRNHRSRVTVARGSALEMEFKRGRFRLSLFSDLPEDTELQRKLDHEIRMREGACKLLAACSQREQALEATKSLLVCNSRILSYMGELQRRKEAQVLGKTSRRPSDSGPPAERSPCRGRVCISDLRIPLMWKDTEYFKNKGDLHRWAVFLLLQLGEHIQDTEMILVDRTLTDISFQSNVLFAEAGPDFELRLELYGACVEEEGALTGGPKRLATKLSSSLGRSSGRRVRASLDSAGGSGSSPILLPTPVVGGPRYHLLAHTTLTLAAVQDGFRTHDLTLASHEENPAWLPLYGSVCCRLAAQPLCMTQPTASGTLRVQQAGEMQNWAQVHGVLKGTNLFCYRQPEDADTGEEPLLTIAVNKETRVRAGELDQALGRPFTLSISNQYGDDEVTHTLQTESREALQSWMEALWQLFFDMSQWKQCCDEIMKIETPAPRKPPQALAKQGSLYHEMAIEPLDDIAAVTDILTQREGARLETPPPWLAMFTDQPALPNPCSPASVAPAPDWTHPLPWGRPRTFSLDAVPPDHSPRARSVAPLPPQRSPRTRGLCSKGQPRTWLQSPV
UniProt P61586: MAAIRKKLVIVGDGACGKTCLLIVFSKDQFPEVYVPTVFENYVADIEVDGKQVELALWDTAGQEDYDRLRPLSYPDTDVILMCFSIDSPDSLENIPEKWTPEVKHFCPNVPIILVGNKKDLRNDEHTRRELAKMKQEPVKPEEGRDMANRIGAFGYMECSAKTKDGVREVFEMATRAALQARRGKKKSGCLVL

binding: binds
Substance: RhoA (from UniProt P61586 1-193)

From PMC10531280
